Measured values reported in article PMC8956953.
These are yes or no findings as the source states them, for the method shown. In cells and extracts the contact can be indirect. Some results given as binding are weak or reduced against the parent protein; the word gives no strength.

The chains behind the UniProt entries cited, without tags or fusion partners.
UniProt O43865: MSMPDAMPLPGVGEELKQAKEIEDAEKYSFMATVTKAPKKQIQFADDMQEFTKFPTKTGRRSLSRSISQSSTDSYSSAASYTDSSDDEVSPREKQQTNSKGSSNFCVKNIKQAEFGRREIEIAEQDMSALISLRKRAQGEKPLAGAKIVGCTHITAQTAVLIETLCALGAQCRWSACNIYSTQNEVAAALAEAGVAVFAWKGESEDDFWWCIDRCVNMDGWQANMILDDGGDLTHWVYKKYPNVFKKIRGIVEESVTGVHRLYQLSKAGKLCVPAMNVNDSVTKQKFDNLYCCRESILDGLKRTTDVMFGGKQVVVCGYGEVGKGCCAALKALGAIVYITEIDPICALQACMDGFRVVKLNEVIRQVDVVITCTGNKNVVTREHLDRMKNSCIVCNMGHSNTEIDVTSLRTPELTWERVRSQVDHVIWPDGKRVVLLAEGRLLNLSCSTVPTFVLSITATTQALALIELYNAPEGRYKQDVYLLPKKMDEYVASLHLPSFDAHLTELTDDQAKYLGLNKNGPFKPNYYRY

Molecular target: endogenous AHCYL1/IRBIT of HEK293T cells (human (endogenous in HEK293T)) (UniProt O43865)
Experiment: co-IP; HEK293T cells transiently transfected with HA-htau40, crosslinked with 2 mM dithiobis(succinimidyl propionate) for 30 min, nondenaturing lysis buffer; IP with anti-HA or anti-IRBIT, immunoblot

“hemagglutinin (HA)-tagged htau40 overexpressed in HEK293T cells (from UniProt P10636-8 1-441)” was tested, and the binding was “binds”.
